Results are given in words; binding and its absence hold for the method and conditions named. In cells and extracts the contact can be indirect. Some entries that bind do so weakly or less than the wild type. For part of these data: Where a sequence is shown, tags or fusion partners need not be part of it.
Legend:
[1] = target: porcine STING with HA tag (pcDNA-DEST-pSTING-2 HA) (porcine) (UniProt B8XX90); assay: co-IP; HEK-293T co-transfected with STING-HA and mCherry-TBK1, IKKε-myc or IRF3-Flag for 24 h (Figure 4A-C)
[2] = target: mCherry-tagged porcine STING (pmCherry-C1-pSTING) (porcine) (UniProt B8XX90); assay: co-IP
[3] = target: endogenous STING of 3D4/21 porcine alveolar macrophages (pig (endogenous in 3D4/21)) (UniProt B8XX90); assay: co-IP
[4] = target: porcine STING with HA tag (pcDNA-DEST-pSTING-2 HA) (porcine) (UniProt B8XX90); assay: co-IP

Protein sequences, listed by entry. Tags and fused reporters are not part of them.
UniProt B8XX90: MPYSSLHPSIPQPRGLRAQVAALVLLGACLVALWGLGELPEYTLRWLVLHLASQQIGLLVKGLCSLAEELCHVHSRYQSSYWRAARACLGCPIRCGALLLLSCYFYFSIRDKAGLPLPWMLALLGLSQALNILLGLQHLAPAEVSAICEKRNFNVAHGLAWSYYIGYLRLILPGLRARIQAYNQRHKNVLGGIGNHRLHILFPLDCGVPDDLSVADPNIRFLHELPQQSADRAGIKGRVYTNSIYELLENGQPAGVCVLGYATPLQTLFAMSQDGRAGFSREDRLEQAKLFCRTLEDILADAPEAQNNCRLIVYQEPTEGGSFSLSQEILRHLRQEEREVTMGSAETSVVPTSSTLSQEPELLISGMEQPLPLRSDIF
UniProt M9MMN5: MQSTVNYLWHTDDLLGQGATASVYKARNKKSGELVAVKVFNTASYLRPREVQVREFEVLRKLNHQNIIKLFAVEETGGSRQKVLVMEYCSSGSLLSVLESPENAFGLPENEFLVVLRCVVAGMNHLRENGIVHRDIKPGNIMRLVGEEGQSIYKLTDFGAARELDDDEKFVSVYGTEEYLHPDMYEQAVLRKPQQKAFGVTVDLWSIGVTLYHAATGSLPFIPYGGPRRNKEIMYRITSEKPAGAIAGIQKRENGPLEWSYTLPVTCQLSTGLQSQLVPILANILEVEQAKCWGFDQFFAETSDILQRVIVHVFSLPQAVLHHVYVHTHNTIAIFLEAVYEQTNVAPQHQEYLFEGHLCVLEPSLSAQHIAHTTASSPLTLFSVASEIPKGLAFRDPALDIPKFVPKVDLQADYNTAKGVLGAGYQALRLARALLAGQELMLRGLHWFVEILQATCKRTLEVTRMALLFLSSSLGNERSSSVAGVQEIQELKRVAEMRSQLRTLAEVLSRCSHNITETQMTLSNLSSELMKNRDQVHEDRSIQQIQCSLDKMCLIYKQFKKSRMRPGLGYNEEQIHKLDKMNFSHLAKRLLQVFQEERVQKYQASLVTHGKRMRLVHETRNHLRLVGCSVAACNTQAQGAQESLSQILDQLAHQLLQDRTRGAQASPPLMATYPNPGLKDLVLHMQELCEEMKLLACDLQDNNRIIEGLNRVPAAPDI

Q: Which binding [1] does the source give for “Myc-tagged porcine IKKε (pcDNA-Myc-IKKε) (from UniProt M9MMN5 1-718)” here?
A: The binding was “binds”.

Q: What about the binding [2] of the same molecule?
A: The binding was “binds”.

Q: For “endogenous IKKε of 3D4/21 porcine alveolar macrophages (from UniProt M9MMN5 1-718)”, which binding [3] is on record?
A: The binding was “binds”.

B1: FLAG-tagged porcine IRF3 (p3×FLAG-CMV-7.1-pIRF3) (protein, UniProt Q764M6 1-419)
chain: MGTQKPRILPWLISQLNQGQLEGVAWLDEGHTRFRIPWKHGLRQDAQQEDFGIFQAWAEASGAYTPGKDKPDLPTWKRNFRSALNRKEALRLAEDHSKDPHDPHKIYEFVTSGVGDFPEPDTSLDLSGRYSTSDTHEDSLDKLLSGMDLASDAGPQSLTLALEQPPQLSLSPSVDAPASCPNLGVRENPLKQLLANDDEWEFQVTVFYRGCQVFQQTVCSPGGLRLVGSEAEDGTLAGQPVRLPDPAASLTDRGVADYVRRVLSCLGGGLALWRAGQWLWAQRLGHCHVYWAMGEELIPDSGHKPDGEVPKDREGGVFDLGPFIEDLIAFIEGSRRSPRYTLWFCMGQSWPQDEPWVKRLVMVKVVPMCLRALVDMARDGGASSLENTVDLHISNSHPLSLTSDQYKACLRDLVEDMDF
Q: What does the source list for B1?
A: binding [1]: binds; binding [4]: binds

B2: endogenous IRF3 of 3D4/21 porcine alveolar macrophages (protein, UniProt Q764M6 1-419)
chain: MGTQKPRILPWLISQLNQGQLEGVAWLDEGHTRFRIPWKHGLRQDAQQEDFGIFQAWAEASGAYTPGKDKPDLPTWKRNFRSALNRKEALRLAEDHSKDPHDPHKIYEFVTSGVGDFPEPDTSLDLSGRYSTSDTHEDSLDKLLSGMDLASDAGPQSLTLALEQPPQLSLSPSVDAPASCPNLGVRENPLKQLLANDDEWEFQVTVFYRGCQVFQQTVCSPGGLRLVGSEAEDGTLAGQPVRLPDPAASLTDRGVADYVRRVLSCLGGGLALWRAGQWLWAQRLGHCHVYWAMGEELIPDSGHKPDGEVPKDREGGVFDLGPFIEDLIAFIEGSRRSPRYTLWFCMGQSWPQDEPWVKRLVMVKVVPMCLRALVDMARDGGASSLENTVDLHISNSHPLSLTSDQYKACLRDLVEDMDF
Q: With B2 as the molecule, how does the binding [3] read?
A: The binding was “binds”.
